The results in this text go back to article PMC8387475.

Chains of the proteins cited; added tags and fusions are not shown. Lines headed by an entry give the natural chain unless they say otherwise; changes in a name come on top.
UniProt Q9NRC8: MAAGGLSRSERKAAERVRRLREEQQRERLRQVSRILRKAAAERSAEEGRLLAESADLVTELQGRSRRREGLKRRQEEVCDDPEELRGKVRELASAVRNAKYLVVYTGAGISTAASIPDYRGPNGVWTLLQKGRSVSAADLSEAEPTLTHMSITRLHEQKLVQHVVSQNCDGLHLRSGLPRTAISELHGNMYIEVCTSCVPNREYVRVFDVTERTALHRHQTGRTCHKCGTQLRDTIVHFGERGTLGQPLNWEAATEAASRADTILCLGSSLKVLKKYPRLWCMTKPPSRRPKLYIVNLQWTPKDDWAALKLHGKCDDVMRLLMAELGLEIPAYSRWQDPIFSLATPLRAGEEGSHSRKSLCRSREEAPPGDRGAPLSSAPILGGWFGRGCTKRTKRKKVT
UniProt Q13309: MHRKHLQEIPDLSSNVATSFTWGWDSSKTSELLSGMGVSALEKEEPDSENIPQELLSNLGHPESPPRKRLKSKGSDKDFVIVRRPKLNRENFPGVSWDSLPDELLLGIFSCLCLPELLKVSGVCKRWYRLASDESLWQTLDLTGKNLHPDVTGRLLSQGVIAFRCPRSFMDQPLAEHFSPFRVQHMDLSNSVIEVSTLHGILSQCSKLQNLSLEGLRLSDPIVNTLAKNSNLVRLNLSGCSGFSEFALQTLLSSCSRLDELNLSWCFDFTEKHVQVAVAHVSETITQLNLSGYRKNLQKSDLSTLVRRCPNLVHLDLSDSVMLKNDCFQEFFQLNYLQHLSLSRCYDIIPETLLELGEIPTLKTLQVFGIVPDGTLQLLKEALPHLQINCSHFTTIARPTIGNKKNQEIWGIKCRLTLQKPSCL
UniProt O95071: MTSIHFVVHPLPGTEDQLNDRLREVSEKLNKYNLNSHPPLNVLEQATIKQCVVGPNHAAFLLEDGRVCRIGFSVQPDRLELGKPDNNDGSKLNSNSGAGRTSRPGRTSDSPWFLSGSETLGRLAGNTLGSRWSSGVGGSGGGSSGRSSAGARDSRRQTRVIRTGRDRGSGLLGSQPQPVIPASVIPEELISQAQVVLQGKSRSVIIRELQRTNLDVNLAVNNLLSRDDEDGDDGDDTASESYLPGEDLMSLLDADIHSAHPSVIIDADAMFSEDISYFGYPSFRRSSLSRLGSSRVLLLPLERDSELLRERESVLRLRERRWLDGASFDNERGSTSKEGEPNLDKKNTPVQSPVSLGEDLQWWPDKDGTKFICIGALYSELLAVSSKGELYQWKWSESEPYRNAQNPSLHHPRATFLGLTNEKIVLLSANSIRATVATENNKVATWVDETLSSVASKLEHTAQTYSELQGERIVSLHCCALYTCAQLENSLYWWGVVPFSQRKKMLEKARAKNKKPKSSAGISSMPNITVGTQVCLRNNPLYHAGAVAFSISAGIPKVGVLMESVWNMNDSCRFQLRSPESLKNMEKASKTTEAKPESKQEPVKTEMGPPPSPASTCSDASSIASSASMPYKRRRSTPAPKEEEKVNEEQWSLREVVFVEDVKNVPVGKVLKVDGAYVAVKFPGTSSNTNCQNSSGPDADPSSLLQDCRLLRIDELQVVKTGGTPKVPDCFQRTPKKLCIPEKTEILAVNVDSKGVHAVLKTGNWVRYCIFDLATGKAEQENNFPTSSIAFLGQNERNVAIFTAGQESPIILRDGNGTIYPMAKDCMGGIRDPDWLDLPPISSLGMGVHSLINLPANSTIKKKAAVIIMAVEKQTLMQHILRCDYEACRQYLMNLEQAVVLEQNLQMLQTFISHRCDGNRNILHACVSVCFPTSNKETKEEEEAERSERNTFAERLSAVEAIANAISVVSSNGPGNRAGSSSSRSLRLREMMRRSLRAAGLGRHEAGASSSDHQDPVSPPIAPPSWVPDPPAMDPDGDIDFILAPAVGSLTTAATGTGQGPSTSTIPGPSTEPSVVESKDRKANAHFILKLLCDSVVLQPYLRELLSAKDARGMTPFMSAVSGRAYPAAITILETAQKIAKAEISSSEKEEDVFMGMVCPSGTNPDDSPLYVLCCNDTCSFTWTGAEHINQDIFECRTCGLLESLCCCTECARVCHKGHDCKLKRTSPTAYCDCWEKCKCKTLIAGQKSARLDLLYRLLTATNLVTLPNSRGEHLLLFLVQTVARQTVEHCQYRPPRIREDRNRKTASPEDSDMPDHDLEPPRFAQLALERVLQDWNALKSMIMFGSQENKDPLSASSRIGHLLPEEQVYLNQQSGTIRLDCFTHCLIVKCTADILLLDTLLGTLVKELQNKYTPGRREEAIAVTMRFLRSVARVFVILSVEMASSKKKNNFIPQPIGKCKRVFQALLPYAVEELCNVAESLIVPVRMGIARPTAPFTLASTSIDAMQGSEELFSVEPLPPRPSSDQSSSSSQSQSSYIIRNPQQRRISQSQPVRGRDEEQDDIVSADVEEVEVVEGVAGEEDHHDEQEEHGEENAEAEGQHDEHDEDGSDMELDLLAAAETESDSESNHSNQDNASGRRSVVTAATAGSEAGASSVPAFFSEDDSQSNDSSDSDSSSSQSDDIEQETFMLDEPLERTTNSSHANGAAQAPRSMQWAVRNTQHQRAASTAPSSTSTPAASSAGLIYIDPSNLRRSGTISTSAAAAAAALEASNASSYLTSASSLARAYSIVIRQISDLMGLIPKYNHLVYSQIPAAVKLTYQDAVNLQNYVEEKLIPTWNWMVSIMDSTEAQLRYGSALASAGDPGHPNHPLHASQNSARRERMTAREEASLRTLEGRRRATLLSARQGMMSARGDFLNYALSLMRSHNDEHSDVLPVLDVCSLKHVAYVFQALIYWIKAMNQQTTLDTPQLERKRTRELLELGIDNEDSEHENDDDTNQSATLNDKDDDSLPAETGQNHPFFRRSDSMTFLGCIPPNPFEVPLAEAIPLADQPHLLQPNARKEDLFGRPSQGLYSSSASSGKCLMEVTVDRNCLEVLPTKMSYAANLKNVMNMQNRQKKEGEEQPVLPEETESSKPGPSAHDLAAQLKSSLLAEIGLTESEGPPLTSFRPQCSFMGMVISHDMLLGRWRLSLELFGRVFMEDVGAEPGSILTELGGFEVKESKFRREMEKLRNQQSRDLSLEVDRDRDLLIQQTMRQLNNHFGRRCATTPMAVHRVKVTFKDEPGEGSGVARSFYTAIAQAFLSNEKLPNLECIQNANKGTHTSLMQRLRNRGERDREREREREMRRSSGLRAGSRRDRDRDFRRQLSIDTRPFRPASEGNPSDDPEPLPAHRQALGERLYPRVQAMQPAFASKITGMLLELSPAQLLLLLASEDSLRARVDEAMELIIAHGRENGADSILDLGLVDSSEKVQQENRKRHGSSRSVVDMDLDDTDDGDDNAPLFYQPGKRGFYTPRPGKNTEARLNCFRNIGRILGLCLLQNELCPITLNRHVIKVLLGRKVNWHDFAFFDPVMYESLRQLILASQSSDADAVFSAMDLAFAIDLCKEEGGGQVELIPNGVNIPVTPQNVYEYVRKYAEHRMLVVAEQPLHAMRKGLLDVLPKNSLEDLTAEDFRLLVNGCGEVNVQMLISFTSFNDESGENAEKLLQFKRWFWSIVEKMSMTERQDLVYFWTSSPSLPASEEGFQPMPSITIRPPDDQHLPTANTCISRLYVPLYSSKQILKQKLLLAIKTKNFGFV
UniProt P49841: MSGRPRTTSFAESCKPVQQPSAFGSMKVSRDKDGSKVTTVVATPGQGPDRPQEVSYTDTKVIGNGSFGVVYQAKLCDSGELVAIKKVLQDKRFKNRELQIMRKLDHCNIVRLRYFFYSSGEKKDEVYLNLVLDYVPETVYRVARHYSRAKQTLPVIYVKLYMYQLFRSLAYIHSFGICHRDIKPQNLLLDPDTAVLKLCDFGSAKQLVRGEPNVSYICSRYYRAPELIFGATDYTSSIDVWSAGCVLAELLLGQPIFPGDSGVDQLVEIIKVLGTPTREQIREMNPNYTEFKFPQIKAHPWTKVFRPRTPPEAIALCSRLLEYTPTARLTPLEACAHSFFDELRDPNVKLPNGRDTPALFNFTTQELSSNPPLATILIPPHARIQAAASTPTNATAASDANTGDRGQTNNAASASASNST

Results are given in words; binding and its absence hold for the method and conditions named. Binding seen in cells or lysates may run through a third protein. Some entries that bind do so weakly or less than the wild type.

The target of assay [1] is HA-SIRT7 (human) (UniProt Q9NRC8). The experiment in a line: co-IP; tagged proteins expressed by transfection (HEK293), precipitated by the tag (anti-FLAG or anti-HA); lysis buffer 25 mM Tris-HCl pH 7.4, 150 mM NaCl, 1% NP-40, 1 mM EDTA; some panels with co-expressed SIRT7-WT, 2A or 2E, or EGF 5 ng/ml.
Assay [2] concerns the target SKP2 (in cell lysate, untagged) (UniProt Q13309). The assay can be described thus: co-IP; proteins of untransfected cell lysates precipitated with anti-SIRT7, anti-GSK3β or anti-SKP2 antibody; lysis buffer 25 mM Tris-HCl pH 7.4, 150 mM NaCl, 1% NP-40, 1 mM EDTA; cells treated in some panels (glucose starvation 1 h, Compound C 5 µM, GSK3β or ERK2 knock-down, LiCl).
The target of assay [3] is UBR5 (in cell lysate, with endogenous SIRT7) (UniProt O95071). The assay is described as above.
Assay [4] deals with glycogen synthase kinase 3β (endogenous) (human (endogenous in HEK293)) (UniProt P49841). The description is as above.
For another assay, the target named is FLAG-SKP2 (UniProt Q13309). The experiment in a line: co-IP; tagged proteins expressed by transfection (HEK293), precipitated by the tag (anti-FLAG or anti-HA); lysis buffer 25 mM Tris-HCl pH 7.4, 150 mM NaCl, 1% NP-40, 1 mM EDTA; some panels with co-expressed SIRT7-WT, 2A or 2E, or EGF 5 ng/ml.
The target of assay [5] is SKP2 (in transfected HEK293 cells, construct not stated) (UniProt Q13309). The assay is described as above.
A further assay deals with FLAG-UBR5 (UniProt O95071). Described as above.
For assay [6], the target named is GSK3β (in transfected HEK293 cells, construct not stated) (UniProt P49841). The assay is described as above.
For assay [7], the target named is HA-SIRT7 (human) (UniProt Q9NRC8). The assay can be described thus: co-IP; sequential immunoprecipitations with anti-HA and anti-FLAG antibodies from HEK293 cells co-expressing HA-SIRT7 and Flag-AMPK.
Assay [8] has as its target SIRT7 (endogenous) (human (endogenous in HEK293)) (UniProt Q9NRC8). The experiment in a line: co-IP; proteins of untransfected cell lysates precipitated with anti-SIRT7, anti-GSK3β or anti-SKP2 antibody; lysis buffer 25 mM Tris-HCl pH 7.4, 150 mM NaCl, 1% NP-40, 1 mM EDTA; cells treated in some panels (glucose starvation 1 h, Compound C 5 µM, GSK3β or ERK2 knock-down, LiCl).

As for “Flag-GSK3β (from UniProt P49841 1-420) (enzyme)”, the binding entry with HA-SIRT7 (human) [1] is “binds”.

Consider “SIRT7 (endogenous) (from UniProt Q9NRC8 1-400)”, for which the binding result in assay [2], in assay [3] and in assay [4] was “binds” in each case.

For the substance “SIRT7 T255E/S259E mutant (2E) (from UniProt Q9NRC8 1-400)”, the binding entry (with FLAG-SKP2; in assay [5]) was “binds” throughout.

In the case of “SIRT7-WT (ectopic, tag not stated) (from UniProt Q9NRC8 1-400)”, the binding entry (with FLAG-SKP2; with FLAG-UBR5; in assay [6]; in assay [5]) was “binds” in each case.

With “glycogen synthase kinase 3β (endogenous) (from UniProt P49841 1-420) (enzyme)”, the binding entry (in the assay with HA-SIRT7 (human) [7]; in assay [8]) was “binds” throughout.
